Data on one molecule can be found in article doi:10.1101/325563.

Chains of the proteins cited; added tags and fusions are not shown.
UniProt P33993: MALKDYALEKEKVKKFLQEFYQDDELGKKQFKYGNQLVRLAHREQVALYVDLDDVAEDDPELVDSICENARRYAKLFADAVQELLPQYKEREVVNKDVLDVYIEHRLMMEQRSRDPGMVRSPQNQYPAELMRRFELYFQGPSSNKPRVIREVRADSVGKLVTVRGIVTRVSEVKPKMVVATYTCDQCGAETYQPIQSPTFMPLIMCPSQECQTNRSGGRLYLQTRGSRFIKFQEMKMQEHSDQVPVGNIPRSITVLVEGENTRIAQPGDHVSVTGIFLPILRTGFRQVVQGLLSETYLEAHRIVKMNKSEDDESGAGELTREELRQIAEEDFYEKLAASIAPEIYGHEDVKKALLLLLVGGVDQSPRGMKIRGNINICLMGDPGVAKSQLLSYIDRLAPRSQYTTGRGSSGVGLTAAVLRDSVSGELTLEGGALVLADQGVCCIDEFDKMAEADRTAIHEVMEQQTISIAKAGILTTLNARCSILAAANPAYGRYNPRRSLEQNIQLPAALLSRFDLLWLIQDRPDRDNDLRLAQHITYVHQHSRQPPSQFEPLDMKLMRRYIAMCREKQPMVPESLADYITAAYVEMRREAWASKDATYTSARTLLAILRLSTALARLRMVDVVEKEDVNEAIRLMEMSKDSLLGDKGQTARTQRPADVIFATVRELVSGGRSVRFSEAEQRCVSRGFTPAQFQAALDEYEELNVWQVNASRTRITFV

In test [1] the target is Minichromosome Maintenance Complex Component 7 (MCM7) (human (endogenous in FT282, OVCAR3 and FUOV1)) (UniProt P33993). Briefly: co-IP.
The target is the same in test [2]. As to the kind of experiment: proximity ligation.

These are yes or no findings as the source states them, for the method shown. In cells and extracts the contact can be indirect. Some entries that bind do so weakly or less than the wild type.

B1: XRCC2 (protein, UniProt O43543 1-280)
chain: MCSAFHRAESGTELLARLEGRSSLKEIEPNLFADEDSPVHGDILEFHGPEGTGKTEMLYHLTARCILPKSEGGLEVEVLFIDTDYHFDMLRLVTILEHRLSQSSEEIIKYCLGRFFLVYCSSSTHLLLTLYSLESMFCSHPSLCLLILDSLSAFYWIDRVNGGESVNLQESTLRKCSQCLEKLVNDYRLVLFATTQTIMQKASSSSEEPSHASRRLCDVDIDYRPYLCKAWQQLVKHRMFFSKQDDSQSSNQFSLVSRCLKSNSLKKHFFIIGESGVEFC
With B1, the binding result in test [1] and in test [2] was “binds” throughout.
